Consider four substances from paper PMC7069092.

By UniProt entry, the sequences of proteins in these tests, tags left out. Where a name states a change or a piece, a line headed by the entry shows the natural chain unless it says otherwise. Chains listed by the source or under a name are the forms on record and can include a tag or linker. Residues count along the entry.
Androgen receptor splice variant 7 (AR-V7) (human (endogenous in 22Rv1)) (P10275, form named): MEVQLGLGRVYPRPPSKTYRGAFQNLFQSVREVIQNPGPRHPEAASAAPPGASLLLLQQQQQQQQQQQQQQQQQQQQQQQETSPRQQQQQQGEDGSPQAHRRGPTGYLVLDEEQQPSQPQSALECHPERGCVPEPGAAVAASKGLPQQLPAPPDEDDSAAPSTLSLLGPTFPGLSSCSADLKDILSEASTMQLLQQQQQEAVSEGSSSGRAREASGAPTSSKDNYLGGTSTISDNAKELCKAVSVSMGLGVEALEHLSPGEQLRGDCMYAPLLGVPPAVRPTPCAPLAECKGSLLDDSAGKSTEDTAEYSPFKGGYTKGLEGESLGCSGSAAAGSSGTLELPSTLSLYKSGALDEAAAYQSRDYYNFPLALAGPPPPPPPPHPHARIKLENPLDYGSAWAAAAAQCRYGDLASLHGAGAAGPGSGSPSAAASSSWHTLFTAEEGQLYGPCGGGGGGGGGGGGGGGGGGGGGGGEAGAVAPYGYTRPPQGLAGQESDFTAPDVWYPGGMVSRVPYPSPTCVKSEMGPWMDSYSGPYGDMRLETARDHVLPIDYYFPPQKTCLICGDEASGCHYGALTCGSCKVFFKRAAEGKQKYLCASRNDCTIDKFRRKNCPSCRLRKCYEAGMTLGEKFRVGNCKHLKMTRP
UniProt P08238: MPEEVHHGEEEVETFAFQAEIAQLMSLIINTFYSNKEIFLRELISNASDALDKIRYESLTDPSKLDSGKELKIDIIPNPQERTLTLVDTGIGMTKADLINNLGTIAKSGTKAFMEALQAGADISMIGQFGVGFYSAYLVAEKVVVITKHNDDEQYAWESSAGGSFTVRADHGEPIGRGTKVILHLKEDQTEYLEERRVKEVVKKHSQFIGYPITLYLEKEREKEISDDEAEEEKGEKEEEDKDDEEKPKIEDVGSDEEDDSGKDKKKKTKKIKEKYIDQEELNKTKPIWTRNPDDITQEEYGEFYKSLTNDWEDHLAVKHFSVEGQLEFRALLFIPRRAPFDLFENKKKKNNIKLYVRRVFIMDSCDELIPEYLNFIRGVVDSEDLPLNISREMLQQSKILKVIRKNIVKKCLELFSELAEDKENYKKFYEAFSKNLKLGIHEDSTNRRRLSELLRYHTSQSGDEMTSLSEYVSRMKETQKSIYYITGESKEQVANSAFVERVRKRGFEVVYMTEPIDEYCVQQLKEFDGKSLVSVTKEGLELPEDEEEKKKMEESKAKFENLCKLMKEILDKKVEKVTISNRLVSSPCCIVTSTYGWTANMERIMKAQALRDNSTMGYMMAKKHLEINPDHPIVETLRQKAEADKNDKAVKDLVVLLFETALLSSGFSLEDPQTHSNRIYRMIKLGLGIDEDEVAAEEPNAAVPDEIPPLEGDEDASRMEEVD
UniProt P11142: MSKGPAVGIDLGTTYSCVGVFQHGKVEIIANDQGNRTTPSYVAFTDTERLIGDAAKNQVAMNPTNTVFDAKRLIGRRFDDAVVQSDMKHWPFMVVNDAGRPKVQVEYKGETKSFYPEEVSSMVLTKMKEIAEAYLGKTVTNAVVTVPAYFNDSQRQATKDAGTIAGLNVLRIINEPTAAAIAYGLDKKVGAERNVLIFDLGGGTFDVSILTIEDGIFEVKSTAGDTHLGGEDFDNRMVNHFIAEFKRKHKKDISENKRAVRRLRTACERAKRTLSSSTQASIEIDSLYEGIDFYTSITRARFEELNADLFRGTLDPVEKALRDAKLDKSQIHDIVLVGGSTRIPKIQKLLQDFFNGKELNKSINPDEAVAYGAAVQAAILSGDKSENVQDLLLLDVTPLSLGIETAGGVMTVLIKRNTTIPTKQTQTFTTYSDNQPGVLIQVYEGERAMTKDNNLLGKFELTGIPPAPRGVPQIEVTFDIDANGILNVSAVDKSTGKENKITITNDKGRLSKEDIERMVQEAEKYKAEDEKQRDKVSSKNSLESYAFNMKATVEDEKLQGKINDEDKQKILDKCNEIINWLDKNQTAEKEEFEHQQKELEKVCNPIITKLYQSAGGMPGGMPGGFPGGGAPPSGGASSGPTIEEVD
UniProt P11021, residues 19-654: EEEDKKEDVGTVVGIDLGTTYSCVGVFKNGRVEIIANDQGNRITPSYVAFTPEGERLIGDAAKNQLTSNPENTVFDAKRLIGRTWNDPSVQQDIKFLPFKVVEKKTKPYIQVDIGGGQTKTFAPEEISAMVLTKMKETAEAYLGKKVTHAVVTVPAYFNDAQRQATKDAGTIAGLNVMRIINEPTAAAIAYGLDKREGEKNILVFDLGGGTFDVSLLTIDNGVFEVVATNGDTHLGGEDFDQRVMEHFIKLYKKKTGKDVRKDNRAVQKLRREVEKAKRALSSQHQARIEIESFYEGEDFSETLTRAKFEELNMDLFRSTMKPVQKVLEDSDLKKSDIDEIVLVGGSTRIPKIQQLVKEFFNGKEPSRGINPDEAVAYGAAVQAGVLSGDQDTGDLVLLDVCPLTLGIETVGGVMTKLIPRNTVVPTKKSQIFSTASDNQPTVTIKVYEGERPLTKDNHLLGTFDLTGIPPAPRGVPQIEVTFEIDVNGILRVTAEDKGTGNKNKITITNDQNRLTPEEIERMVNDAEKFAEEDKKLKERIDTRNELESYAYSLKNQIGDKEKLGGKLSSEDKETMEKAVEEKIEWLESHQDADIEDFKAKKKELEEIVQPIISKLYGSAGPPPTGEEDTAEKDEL

Results are given in words; binding and its absence hold for the method and conditions named. In cells and extracts the contact can be indirect. Here binding means that the protein was enriched with, or labelled near, the bait; the list need not be complete.

This assay addresses Androgen receptor splice variant 7 (AR-V7) (human (endogenous in 22Rv1)) (UniProt P10275). Put plainly: affinity purification with mass spectrometry; co-IP with AR-V7 antibody beads from 22Rv1 cells, SDS-PAGE, silver staining, biological mass spectrometry.
As for “HS90A (Hsp90-alpha) (from UniProt P07900 1-732)”, the binding entry is recorded as “binds”.
Then “HS90B (Hsp90-beta) (from UniProt P08238 1-724)”, with “binds”; and “HSP7C (heat shock cognate 71 kDa protein) (from UniProt P11142 1-646)”, with “binds”.
Take “glucose-regulated protein 78kD (GRP78, also known as BiP) (from UniProt P11021 19-654)”: the binding entry is “binds”.
